# The other results are listed elsewhere or left out.
# Protein sequences, listed by entry. Tags and fused reporters are not part of them.
# UniProt Q0JBA9, entry or part of it: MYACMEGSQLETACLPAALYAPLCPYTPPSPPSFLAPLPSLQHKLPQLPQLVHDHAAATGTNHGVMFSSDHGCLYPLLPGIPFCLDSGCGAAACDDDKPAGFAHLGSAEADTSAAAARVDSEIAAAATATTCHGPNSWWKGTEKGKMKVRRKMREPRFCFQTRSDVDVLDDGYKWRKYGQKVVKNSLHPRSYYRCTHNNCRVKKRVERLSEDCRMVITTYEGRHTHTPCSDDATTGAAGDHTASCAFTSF
# Target: OsWRKY34 (Oryza sativa, UniProt Q0JBA9 1-250)
# Assay: protein-binding microarray (RPBM); PBS, 2% BSA, 51.3 ng/ul salmon testes DNA, 50 uM zinc acetate, 200 nM TF, 25 C, 1 h; high values mean tight binding
# Details: protein: recombinant; tags: N-terminal polyhistidine and DsRed monomer fusion (pET32a); label: CyDye5-dUTP incorporated in the synthesized complementary strand; 3' TTTTT single-stranded linker to array surface; dsDNA, one strand shown
# How it was run: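 Transcription factors, each fused N-terminally to a polyhistidine tag and DsRed, were expressed in E. coli BL21-CodonPlus and purified on Ni–NTA. A custom Agilent array was made double-stranded by primer extension with Cy5-dUTP and blocked with 2% BSA. It was incubated with 200 nM protein in PBS, 2% BSA, salmon testes DNA and 50 µM zinc acetate at 25 °C for 1 h, then washed. The binding signal is per-feature fluorescence intensity (arbitrary units) read on an Axon 4000B scanner.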
row,Sequence,binding signal
1,AATCTTAGTTACCGAATGCTAATTCCACTTACAATCATTTCGGAGTCACCTAGTGCAG,9440 fluorescence intensity (a.u.)
2,GCTGCCGCAAACTCGCTCGGCTATCGTGCCATGCGCCTATCGGAGTCACCTAGTGCAG,8300 fluorescence intensity (a.u.)
3,GCGCAGCGTACGTCTCATGCATGCATCCTTTATCGTACAACGGAGTCACCTAGTGCAG,8280 fluorescence intensity (a.u.)
4,CGTAACCCGTTGACACCCGCGACCCCTGTTTTCGCTTTTCCGGAGTCACCTAGTGCAG,12100 fluorescence intensity (a.u.)
5,CCGACGTCGTCTGCGCCATCCCTAGCCGCCGCCATCCGCTCGGAGTCACCTAGTGCAG,9920 fluorescence intensity (a.u.)
6,AGGGGTTGTACAGTAGAGTGTTTGTTTTATTTTTCCCTTTCGGAGTCACCTAGTGCAG,9150 fluorescence intensity (a.u.)
7,TTCCCGTGCCGCTATGACCTTCGTCCTCGGTCTGTTGACCCGGAGTCACCTAGTGCAG,14700 fluorescence intensity (a.u.)
8,CTGCCTCGATCGATCGATCTCATCTCATCTGCGCTGTTCTCGGAGTCACCTAGTGCAG,8160 fluorescence intensity (a.u.)
9,GAGGGCGGTTTTGCTGATGTGGCGTTGACGTGGCGATGTTCGGAGTCACCTAGTGCAG,11500 fluorescence intensity (a.u.)
10,ATCTAGTCCCACCTATTATACACACATTACGTCTTGAAGTCGGAGTCACCTAGTGCAG,9850 fluorescence intensity (a.u.)
11,TAACCTATTATATTCCGCTTGGTGTTTTTTTACCCTTTATCGGAGTCACCTAGTGCAG,13000 fluorescence intensity (a.u.)
12,CTGTTTAGATCTCCTAGCAACATTTTACACTCTCTTGCATCGGAGTCACCTAGTGCAG,8740 fluorescence intensity (a.u.)
13,GAATGTGCAATTATGTTCTTTTCTTGAATGATTTGCTAATCGGAGTCACCTAGTGCAG,10000 fluorescence intensity (a.u.)
14,CCACTCGCACCCAACGGATCTCTCCCTCCTCCGCCTTCTCCGGAGTCACCTAGTGCAG,8560 fluorescence intensity (a.u.)
15,GGTAAGAGCAGCCTTGTATTGTACTGTCCAATTTTTGATCCGGAGTCACCTAGTGCAG,9450 fluorescence intensity (a.u.)
16,GCCGCCGCTGGCGGGTGGGGATCGGTGGGGCAGTTCGGGCCGGAGTCACCTAGTGCAG,9050 fluorescence intensity (a.u.)
17,GGGTTCTTGGCTACTGGGGCTGTCTCTCTATCTTTCTTGACGGAGTCACCTAGTGCAG,21600 fluorescence intensity (a.u.)
18,CTCCGCGTCGATCACCCAACCACGCCCGCCGCCGCCGCCGCGGAGTCACCTAGTGCAG,8060 fluorescence intensity (a.u.)
19,TTTTTACTTCGATTTCTGTTATCACATTTTTTAAAAATTGCGGAGTCACCTAGTGCAG,9970 fluorescence intensity (a.u.)
20,TTGTATATTGTTTGTGCTTTTGGTCGACCTGTCTGTCACCCGGAGTCACCTAGTGCAG,9530 fluorescence intensity (a.u.)
21,ACCGACCTACTTAATTGCCTCCTGCCAAAATGACCCTTTACGGAGTCACCTAGTGCAG,9140 fluorescence intensity (a.u.)

row,Sequence,binding signal
1,GGTGCTCAGCCTCCGCGCCAACAGCCTCTCCGGCGAGTTCCGGAGTCACCTAGTGCAG,8200 fluorescence intensity (a.u.)
2,AACTTTCTTGTTTTCCATTACCACATTTTCCACATAAAAGCGGAGTCACCTAGTGCAG,8050 fluorescence intensity (a.u.)
3,AAAGGGAGAGTTCAATGATGGGGTAGGGTACAGGGGAAACCGGAGTCACCTAGTGCAG,12300 fluorescence intensity (a.u.)
4,TATCTCCTCTTCTCTCTTCTTATCCGTATGTGTTTAGAGCCGGAGTCACCTAGTGCAG,9630 fluorescence intensity (a.u.)
5,ACACACGATTTCACTACCGCCCGATTTACTGTCGCGAAGACGGAGTCACCTAGTGCAG,11100 fluorescence intensity (a.u.)
6,TTCTGTACGTCTGTGTGTGTAGTCAACCTAAAATAATTTTCGGAGTCACCTAGTGCAG,10500 fluorescence intensity (a.u.)
7,CGTTCATCCTGTCCACCCAGAGCCATTGCCACACACACACCGGAGTCACCTAGTGCAG,8250 fluorescence intensity (a.u.)
8,ATTTGTGTACGGCACCGCCCCACCCGCCACGCCTCCGCCTCGGAGTCACCTAGTGCAG,8580 fluorescence intensity (a.u.)
9,CCGTGAAGCGACTCCCTCACCAATCATTCGCCTCTACTATCGGAGTCACCTAGTGCAG,9240 fluorescence intensity (a.u.)
10,CCCGCCTCGCCGTCTCCCGTTCGGAACACCAAGCTCCAGCCGGAGTCACCTAGTGCAG,8710 fluorescence intensity (a.u.)
11,GATTTATCACACCCAGCCGATCTTAGGGCTGCTTCTACGTCGGAGTCACCTAGTGCAG,8080 fluorescence intensity (a.u.)
12,GGACTATCGCGCGCGTTTTTTTGGCGGGGAGCGAGGCGGGCGGAGTCACCTAGTGCAG,10400 fluorescence intensity (a.u.)
13,TTACACAGGCCAGTCGTCTTCTTCGTCATCCTCGATCAGCCGGAGTCACCTAGTGCAG,8900 fluorescence intensity (a.u.)
14,CGTATTACCGGTTACAAACTTGCAAATGATGACAGTCACACGGAGTCACCTAGTGCAG,8200 fluorescence intensity (a.u.)
15,GGAACACCGCCGCGCCATCGTCGTCCTGGAGCGCGCTCCGCGGAGTCACCTAGTGCAG,11400 fluorescence intensity (a.u.)
16,GCTTCCCTTCTTCTTCTTCTTCGTTGATCCACTCACCCGCCGGAGTCACCTAGTGCAG,9210 fluorescence intensity (a.u.)
17,CCGACTTGTGTTCACTTCATTACGGCAATACAACTTTGTCCGGAGTCACCTAGTGCAG,12200 fluorescence intensity (a.u.)
18,CCTTTGCTACTTACATCACTGGGTTGAAACTTGATTCCCACGGAGTCACCTAGTGCAG,8250 fluorescence intensity (a.u.)
19,TTTGCATGTGGTTTGGTTTTCTTGTGTTGGCTGTTGTTGTCGGAGTCACCTAGTGCAG,9210 fluorescence intensity (a.u.)
20,ACAACTTTTCAACTTCTTATTCCTCCCGTATCAAAATATACGGAGTCACCTAGTGCAG,9440 fluorescence intensity (a.u.)
21,GGCTGTCTCAACTCCAAATATTGCCTTTGCTTCACTCCTACGGAGTCACCTAGTGCAG,9760 fluorescence intensity (a.u.)

# Part of the list above in another layout:
row | Sequence | binding signal
10 | ATCTAGTCCCACCTATTATACACACATTACGTCTTGAAGTCGGAGTCACCTAGTGCAG | 9850 fluorescence intensity (a.u.)
18 | CTCCGCGTCGATCACCCAACCACGCCCGCCGCCGCCGCCGCGGAGTCACCTAGTGCAG | 8060 fluorescence intensity (a.u.)
8 | ATTTGTGTACGGCACCGCCCCACCCGCCACGCCTCCGCCTCGGAGTCACCTAGTGCAG | 8580 fluorescence intensity (a.u.)

# Source: PMC7819943, “Rice protein-binding microarrays: a tool to detect cis-acting elements near promoter regions in rice”
